Results taken from the supplement of paper PMC12889115.
This is one part of the list. These are raw signals, not scaled to a control.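 In the initial screen, polymyxin B was used at a concentration that permeabilizes Salmonella's outer membrane but not its inner membrane. Maximum growth was set by DMSO wells with or without polymyxin B. Since plates varied, data were ranked per plate, and compounds giving the lowest OD600 advanced as hits.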

System: Salmonella enterica serovar Typhimurium SL1344
Experiment: bacterial growth OD600 after 18 h with compound and polymyxin B; higher = more bacterial growth (less inhibition)
Conditions: 50 µM, Mueller-Hinton broth

Structure (SMILES)	bacterial growth OD600 (polymyxin B 1 µg/mL)	bacterial growth OD600 (polymyxin B 0.75 µg/mL)
O=C(CCC1CCCN(Cc2ccc(OCc3ccccc3)cc2)C1)N1CCOCC1 (stereo unspecified)	0.775	–
O=C(/C=C/c1cccs1)N1CCC2(CCCN(CC3CCCCC3)C2)C1 (stereo unspecified)	0.868	–
OC(Cc1ccccc1)c1ccc2c(c1)CN(Cc1cccn1-c1ncccn1)CCO2 (stereo unspecified)	–	0.747
Cc1cc(C)n(Cc2cc(C(=O)NCCc3cscn3)n[nH]2)n1	–	0.968
CCN1CC(CN(C)Cc2cn(-c3ccc(C)cc3)nc2-c2cccc(C)c2)CC1=O (stereo unspecified)	0.898	–
CC1CCN(C(=O)c2cc(CN3CCC(Cc4ccccc4)CC3)on2)CC1	1.05	–
CCS(=O)(=O)c1ncc(CN2CCN(c3ccccc3)CC2C)n1CCOC (stereo unspecified)	1.23	–
CN(CC1CCOCC1)C(=O)c1cn(C(c2ccccc2)c2ccccc2)nn1	0.797	–
CN(C)S(=O)(=O)NCc1cccnc1Oc1ccc(F)cc1F	0.88	–
Cn1ccnc1C(=O)C1CCCN(Cc2nc(-c3ccc4c(c3)OCO4)no2)C1 (stereo unspecified)	0.9	–
COc1ccccc1OCc1cc(C(=O)N2CCCCC2CO)n[nH]1 (stereo unspecified)	–	0.84
COc1ccccc1CN1CCC2(CC1)c1ccccc1[C@@H](NC(=O)COc1ccccc1)[C@@H]2OC	–	0.849
COc1cc(CN2CCCC(C(=O)c3cc(C)c(OC)c(C)c3)C2)cc(OC)c1OC (stereo unspecified)	0.877	–
CC(=O)N1CCN(c2ncccc2CNCc2c(F)cccc2Cl)CC1	–	0.851
CN(C)c1ncc(CN2CCCC(C(=O)Nc3ccc(-c4ccco4)cc3)C2)s1 (stereo unspecified)	0.957	–
Cn1cc(CCC(=O)N2CCCC(CCc3cccc(F)c3)C2)cn1 (stereo unspecified)	–	0.01

A second format for some results above.
CCS(=O)(=O)c1ncc(CN2CCN(c3ccccc3)CC2C)n1CCOC (stereo unspecified)
  bacterial growth OD600 (polymyxin B 1 µg/mL): 1.23
CN(CC1CCOCC1)C(=O)c1cn(C(c2ccccc2)c2ccccc2)nn1
  bacterial growth OD600 (polymyxin B 1 µg/mL): 0.797

Additional results follow.

Structure (SMILES)	bacterial growth OD600 (polymyxin B 1 µg/mL)	bacterial growth OD600 (polymyxin B 0.75 µg/mL)
CCN(CC)C(=O)c1sc2ncnc(NCCCOC)c2c1C	–	0.846
COc1cc(CN2CCSCC2)ccc1OCC(O)CN1CCCCCC1 (stereo unspecified)	–	0.97
CCC(=O)C1CCCN(C(=O)c2cc(NC(=O)c3ccccc3)cc3ncn(C4CCCC4)c23)C1 (stereo unspecified)	–	0.811
CCN(Cc1ccccc1)Cc1nc(-c2cccc(OC)c2OC)oc1C	–	0.775
COc1ccc2c(C)nc(N3CCCC(C(=O)NCCc4ccc(OC)c(OC)c4)C3)nc2c1 (stereo unspecified)	–	0.889
CC(c1ccon1)N(C)C(=O)c1coc(COc2cccc(C(F)(F)F)c2)n1 (stereo unspecified)	0.858	–
O=C(Cc1ccsc1)N1CCC(C2CCN(c3ncccn3)CC2)C1 (stereo unspecified)	0.977	–
O=C(CCCn1cncn1)N1CCOC(Cc2ccccc2)C1 (stereo unspecified)	–	0.923
Cc1oc(-c2ccc(NC(=O)Cc3ccccc3)cc2)nc1CNC(=O)CCc1ccccc1Cl	–	0.853
Cc1ccc(Oc2ncccc2CNC(=O)C2CCOCC2)cn1	1.03	–
Oc1cccc(CN2CCOc3ccc(C(O)Cc4ccccc4)cc3C2)c1 (stereo unspecified)	–	0.736
COc1ccc(Cc2noc(CN(C)CCc3ccccc3)n2)cc1OC	0.877	–
C=C(C)[C@@H]1CC=C(CN2CCC(N3CCC(C(=O)N4CCCC4)CC3)CC2)CC1	–	0.829
CC(C)CN(C)C(=O)c1coc(COc2cccc(C(F)(F)F)c2)n1	0.85	–
CN(C)C(=O)c1ccc(N2CCC(NCCC(c3ccc(F)cc3)c3ccco3)CC2)cc1 (stereo unspecified)	–	0.656
